Mtb heat-shock: 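Assay on Mycobacterium tuberculosis, filed only as a heat shock assay from Cornell; the read-out is not stated. The concentration is filed as 10 mM, unlikely as a test dose, so the dose is not known. Higher reads as stronger inhibition (inferred: compounds with an IC50 in retests scored well above the rest). Size under these conditions: about 69,000 compounds, about 930 of them at 50% or above in at least one test.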
Mtb growth Cornell: 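Whole-cell assay for inhibitors of Mycobacterium tuberculosis growth, labelled Cornell in the record; the read-out is not stated. The concentration is filed as 10 mM, unlikely as a test dose, so the dose is not known. Higher means stronger inhibition (inferred from two other growth screens of the library). Size under these conditions: about 53,000 compounds, about 900 of them at 50% or above in at least one test.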
LdMetRS: 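Methionyl-tRNA synthetase (putative), Leishmania donovani (UniProt E9BF75). Primary screen of methionyl-tRNA synthetase; the read-out is not stated. The test concentration is not given. The values are filed as inhibition. About 68,000 compounds were tested under these conditions; 0.035% (about 24) showed 50% or more at least once.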

Sequences of proteins named here, by UniProt entry; tags and fusion partners are left off.
UniProt E9BF75, entry or part of it: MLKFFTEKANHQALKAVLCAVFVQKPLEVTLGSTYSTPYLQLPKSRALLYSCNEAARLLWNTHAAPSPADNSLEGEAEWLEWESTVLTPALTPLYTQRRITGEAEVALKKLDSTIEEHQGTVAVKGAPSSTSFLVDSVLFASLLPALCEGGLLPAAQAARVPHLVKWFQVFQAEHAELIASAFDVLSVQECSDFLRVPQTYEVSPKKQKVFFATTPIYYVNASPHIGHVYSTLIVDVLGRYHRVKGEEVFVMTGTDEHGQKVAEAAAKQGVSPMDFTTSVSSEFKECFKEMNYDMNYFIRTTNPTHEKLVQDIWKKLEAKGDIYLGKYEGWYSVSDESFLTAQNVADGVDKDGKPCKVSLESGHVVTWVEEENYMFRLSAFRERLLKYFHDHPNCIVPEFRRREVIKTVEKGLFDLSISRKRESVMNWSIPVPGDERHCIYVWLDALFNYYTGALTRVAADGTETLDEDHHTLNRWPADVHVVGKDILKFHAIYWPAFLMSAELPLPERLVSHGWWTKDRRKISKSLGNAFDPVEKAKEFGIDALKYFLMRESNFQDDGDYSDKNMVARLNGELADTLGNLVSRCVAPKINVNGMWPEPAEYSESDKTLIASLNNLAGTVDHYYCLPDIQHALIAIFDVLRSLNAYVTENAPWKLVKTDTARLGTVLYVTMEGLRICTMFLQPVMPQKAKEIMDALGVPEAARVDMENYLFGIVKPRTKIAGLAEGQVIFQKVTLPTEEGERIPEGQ

All values are in %. The controls that fix the scale are not given in the record; negative values are as filed. This is an unselected part of the compounds tested. A dash means the value is not listed here; it may have been measured.

| Compound | Mtb heat-shock | Mtb growth Cornell | LdMetRS |
|---|---|---|---|
| `COc1cccc(Cn2ncnc2CCC(C)N2CCN(C)CC2)c1` (stereo not given) | -3.02 | - | 8.683 |
| `OC(COCc1ccccc1F)CN1CCc2c(ncn2C2CC2)C1` (stereo not given) | 6.481 | - | 14.69 |
| `COCc1ncc(CN2CC[C@@](C)(O)[C@@H](Cc3ccccc3)C2)cn1` | 17.55 | -18.65 | 14.93 |
| `Cc1ccc(CN2Cc3c(C(=O)N4CCOCC4)nn(C)c3C2)s1` | - | - | 11.88 |
| `[H][C@@]12CCN(Cc3cnn(C)c3)C[C@@]1([H])[C@H](C(=O)N1CCCCO1)CCO2` | -15 | - | - |
| `CN(Cc1n[nH]c2c1CCC2)C(=O)CCc1cc2n(n1)CCNC2` | -18.69 | -13.48 | 13.56 |
| `Cn1nccc1C1CCN(Cc2csc(-c3ncccn3)n2)CC1` | -7.738 | 9.73 | 15.56 |
| `Cc1cccc(NC2CCN(C(=O)Nc3cccc4[nH]ccc34)CC2)n1` | 2.215 | 103.5 | 7.981 |
| `Cc1cccc(CNCCOc2ccc(S(C)(=O)=O)cc2)c1` | -32.53 | 15.72 | 19.15 |
| `CCn1ccnc1CN(C)Cc1nc(Cc2ccccc2Cl)no1` | -3.207 | 32.5 | 7.521 |
| `[H][C@]12CC[C@]([H])(CN(S(C)(=O)=O)C1)N(CC(=O)Nc1ccn(C)n1)C2` | 3.193 | 15.04 | - |
| `CC(C)(C)NC(=O)NC(=O)COc1nc(C(C)(C)C)no1` | -1.426 | -18.32 | 2.174 |
| `[H][C@@]12CCN(C(=O)c3ccc[nH]3)[C@]1([H])CCC(=O)N2Cc1csc(C)n1` | -5.636 | 5.064 | - |
| `Cn1cc(-c2cccc(CNC(=O)N3CCC[C@@H]3CO)c2)cn1` | -2.679 | -37.67 | 10.56 |
| `CCc1n[nH]c(C2CN(CC(=O)NCCc3ccsc3)CCO2)n1` (stereo not given) | 14.7 | -11.86 | 6.404 |
| `CS(=O)(=O)N1CCC(NC(=O)COc2ccc(Cl)cc2)CC1` | 3.271 | - | 21.31 |
| `COC(=O)c1cc(C)nc(N2CCN(Cc3cc(C(C)C)no3)CC2)n1` | -25.11 | -0.4202 | 0 |
| `CCCC(=O)NCC(=O)NC1CC(C)(C)Cc2oc(C)cc21` (stereo not given) | 33.08 | 19.32 | 14.54 |
| `COC1CCN(C(=O)CCn2ccc(=O)[nH]c2=O)CC1` | -4.008 | -32.19 | -2.158 |
| `O=C1NCCN(C(=O)CCN2CCCO2)C1c1cccc(F)c1` (stereo not given) | -128.4 | - | 17.22 |
| `Cc1nc(N2CCCC2)nc(N2CCC(O)(C(=O)O)CC2)c1C` | 3.329 | -16.34 | 13.23 |
| `Cc1nc(N2Cc3cnn(Cc4ccc(F)cc4)c3C2)no1` | -41.42 | -11.41 | 11.17 |
| `O=C(O)C(F)(F)F.O=C(O)C(F)(F)F.[H][C@@]12COC[C@@H](C(=O)NCc3ccccn3)[C@]1([H])CN(c1ncccn1)C2` | -11.41 | -4.658 | - |
| `N#Cc1ccc(CN2CCCN(CCCn3cncn3)CC2)cc1` | -6.946 | 15.42 | 8.993 |
| `Cc1ccsc1CN1C[C@@H]2COC[C@]2(COCC(=O)N(C)C)C1` | - | - | 12.18 |
| `[H][C@@]12C[C@H](C)O[C@]1([H])CCN(C(=O)c1ccncn1)C2` | 24.39 | -14.86 | - |
| `N[C@H]1CN(C(=O)c2ccccc2OCCc2ccccc2)C[C@@H]1C1CC1` | 10.7 | 3.774 | 13.07 |
| `CCCn1ncc(CN2CCCC(C(=O)c3ccc(SC)cc3)C2)c1C` (stereo not given) | 19.89 | 3.738 | 9.045 |
| `CCn1ccnc1CN1CCN(CC(O)c2ccccc2)CC1` (stereo not given) | 9.118 | 8.518 | 6.748 |
| `O=C(O)C(F)(F)F.[H][C@@]12CCN(c3nncs3)[C@@]1([H])CCN2C(=O)NC1CC1` | -23.28 | 23.37 | - |
| `O=C(NCCN1CCOCC1)C(OC1CCCC1)c1ccccc1` (stereo not given) | -18.74 | -3.331 | 8.065 |
| `CCc1nc(CNC(C)c2cccc(N3CCCC3=O)c2)cs1.Cl` (stereo not given) | -14.31 | 5.77 | - |
| `CCc1nc(NC2CCN(CC(=O)NC3CC3)CC2)c2cnn(C)c2n1` | -13.1 | -34.87 | -0.2618 |
| `CCC(N)C(=O)N1CCC(OCc2ccc(Cl)c(Cl)c2)CC1` (stereo not given) | - | - | 12.91 |
| `Cc1nc2c(c(NCCc3nc4c(s3)CCCC4)n1)CCNCC2` | -12.33 | 21.92 | 12.06 |
| `CCn1cnnc1CNC(=O)c1cc(Cl)ccc1O` | -21.89 | - | 2.083 |
| `Cn1c(NC(=O)CCS(=O)(=O)C2CCCC2)nc2cc(Cl)ccc21` | 35.84 | 33.8 | 12.73 |
| `Cc1cnn(CC2CN(CC(=O)NCc3ccccn3)CCO2)c1` (stereo not given) | -2.928 | - | 6.294 |
| `Cc1cnc(N2CC[C@H]3[C@@H]2CCC(=O)N3c2cccnc2)nc1` | - | - | 8.148 |
| `Cc1noc(C2CCN(Cn3cc(Cl)cn3)CC2)n1` | 11.5 | - | 14.85 |
| `CN1CCN(C(=O)c2nc3c(o2)CN(C(=O)c2cccnc2)C3)CC1` | - | - | 8.661 |
| `Cn1c(N2CCOCC2)nc2cc(C(=O)N[C@@H]3CC[C@@H](N)C3)ccc21` | 11.14 | -4.687 | 9.348 |
| `Cc1ccccc1C(CC(=O)NCc1n[nH]c(N)n1)c1ccccc1` (stereo not given) | 36.65 | 4.831 | 9.507 |
| `CC(C)N1CCC2(CC1)C(=O)N(c1cccnc1)c1c(F)cccc12.Cl` | -22.69 | 1.413 | - |
| `Cc1ccsc1CCNC(=O)CCC1CCCCN1C` (stereo not given) | 24.67 | 11.29 | 11.15 |
| `COc1cccc(OC)c1C(C(=O)O)N(C)Cc1c(C)n[nH]c1C` (stereo not given) | -12.65 | 6.238 | 14.08 |
| `CCOc1ccccc1C(=O)Nn1c(C)cc(C)cc1=O` | -8.83 | 2.041 | 11.08 |
| `CCC1CN(C)c2ccccc2CN1C(=O)Nc1cccc(F)c1` (stereo not given) | -20.56 | - | 14.21 |
| `CC(C)c1ccc(NC2CCCN(Cc3ccncc3)C2)cc1` (stereo not given) | -12.03 | 9.587 | 5.025 |
| `CNC(=O)c1sccc1S(=O)(=O)Nc1ccc(C)cc1` | -10.08 | 36.31 | 11.17 |
| `Cc1cc(OCC(=O)NCc2ccc(F)cc2)nnc1C` | -20.01 | -7.026 | 23.87 |
| `[H][C@@]12CNC(=O)N1CCN(Cc1cccc(C)n1)C2` | -10.68 | 0.9201 | - |
| `COC(=O)c1cc(NC2CCN(CC(F)(F)F)C2=O)ccc1C` (stereo not given) | -25.92 | - | 16.84 |
| `COCC(=O)N1CCOCC2(CCN(Cc3cccs3)C2)C1.O=C(O)C(F)(F)F` (stereo not given) | -21.04 | 30.91 | - |
| `CCc1nc(N)nc(N(C)Cc2nncn2CCOC)c1C` | -7.068 | -12.41 | 5.645 |
| `Cn1cc(S(=O)(=O)N(Cc2ccc(F)cc2F)C2CC2)cc1C(N)=O` | -12.13 | 7.899 | 11.58 |
| `Cc1nc2c(C(=O)O)cccc2n1-c1ccc(C(=O)N2CCCC2)o1` | -25.38 | - | 1.6 |
| `Cn1cnc2c1CCN(Cc1csc(C3CCCC3)n1)C2` | 46.86 | - | 27.27 |
| `CC(C)(C)c1cc(CN2C[C@H]3CC[C@@H]2CN(Cc2cscn2)C3)n[nH]1` | - | - | 6.65 |
| `NC(=O)NCCC(=O)NCc1nn(-c2ccccc2)c2c1CCC2` | 8.361 | - | 17.89 |
| `Cc1cnn(C2CN(CC(=O)N(C)Cc3cccs3)C2)c1` | 1.996 | 15.65 | 17.58 |
| `O=C(C1CCCCC1)N1CCC2(CCCN2CC2CC2)CC1.O=C(O)C(F)(F)F` | -15.12 | -6.705 | - |
| `CCCc1nc(CNc2nc(C)nc3oc(C)nc23)cs1` | 11.62 | 8.899 | 16.08 |
| `Cn1ccc(C(=O)N2CCC(Cc3cccc4ncccc34)CC2)n1` | -12.2 | - | 3.529 |
| `NC(=O)CSc1ccccc1NCc1nc(Cc2ccccc2)no1` | 0.5444 | - | 15.46 |
| `CCOn1c(SC(C)C)nc2ccccc2c1=O` | -6.77 | 16.05 | 5.831 |
| `O=C(O)[C@@H]1CN(C(=O)c2ccc3nccnc3c2)C[C@H]1c1ccncc1` | 19.35 | 9.715 | 13.77 |
| `O=C(NCCc1ccncc1)c1cccnc1OCC(F)(F)F` | 41.49 | 1.37 | 9.722 |

For reference, 4 entries once more:

Compound,Mtb heat-shock,Mtb growth Cornell,LdMetRS
COc1cccc(Cn2ncnc2CCC(C)N2CCN(C)CC2)c1 (stereo not given),-3.02,-,8.683
CCn1cnnc1CNC(=O)c1cc(Cl)ccc1O,-21.89,-,2.083
Cc1nc(N2CCCC2)nc(N2CCC(O)(C(=O)O)CC2)c1C,3.329,-16.34,13.23
[H][C@@]12C[C@H](C)O[C@]1([H])CCN(C(=O)c1ccncn1)C2,24.39,-14.86,-

Source: ChEMBL document CHEMBL3988442, “University of Dundee, Small-Polar-MMV Screening Library” (2021).